Laboratory results published in article PMC11058800.
No constants are given. Whether binding was seen depends on the method and setting.

Columns and labels:
[1] = molecular target: SRCRD11 (1371-1489) of the deleted in malignant brain tumors 1 (DMBT1) protein, untagged construct (SRCRD only) (human) (UniProt Q9UGM3); test: SEC; Superdex 200 10/300 GL, 20 mM Tris-HCl (pH 8.0), 200 mM NaCl; refolded SRCRD loaded; both purified
[2] = molecular target: SRCRD11 (1371-1489) of DMBT1 released from Trx-His6-TEV-SRCRD by TEV protease (human) (UniProt Q9UGM3); test: as above

Row | binding [1] | binding [2] | Substance
1 | no binding |  | SRCRD11 (1371-1489) of the deleted in malignant brain tumors 1 (DMBT1) protein, untagged construct (SRCRD only) (from UniProt Q9UGM3 1371-1489) (domain or fragment)
2 |  | no binding | SRCRD11 (1371-1489) of DMBT1 released from Trx-His6-TEV-SRCRD by TEV protease (from UniProt Q9UGM3 1371-1489) (domain or fragment)
